Where two headings read alike, the source gives them in different places. No constants are given. Whether binding was seen depends on the method and setting. In cells and extracts the contact can be indirect. Some binding calls cover weakened binding; strength is not graded here. For some of these results: Where a sequence is shown, tags or fusion partners need not be part of it.
How the values were obtained:
GST-TBK1 = biological target: T1, GST-TBK1 (UniProt Q9UHD2); assay: pull-down
T1 sequence: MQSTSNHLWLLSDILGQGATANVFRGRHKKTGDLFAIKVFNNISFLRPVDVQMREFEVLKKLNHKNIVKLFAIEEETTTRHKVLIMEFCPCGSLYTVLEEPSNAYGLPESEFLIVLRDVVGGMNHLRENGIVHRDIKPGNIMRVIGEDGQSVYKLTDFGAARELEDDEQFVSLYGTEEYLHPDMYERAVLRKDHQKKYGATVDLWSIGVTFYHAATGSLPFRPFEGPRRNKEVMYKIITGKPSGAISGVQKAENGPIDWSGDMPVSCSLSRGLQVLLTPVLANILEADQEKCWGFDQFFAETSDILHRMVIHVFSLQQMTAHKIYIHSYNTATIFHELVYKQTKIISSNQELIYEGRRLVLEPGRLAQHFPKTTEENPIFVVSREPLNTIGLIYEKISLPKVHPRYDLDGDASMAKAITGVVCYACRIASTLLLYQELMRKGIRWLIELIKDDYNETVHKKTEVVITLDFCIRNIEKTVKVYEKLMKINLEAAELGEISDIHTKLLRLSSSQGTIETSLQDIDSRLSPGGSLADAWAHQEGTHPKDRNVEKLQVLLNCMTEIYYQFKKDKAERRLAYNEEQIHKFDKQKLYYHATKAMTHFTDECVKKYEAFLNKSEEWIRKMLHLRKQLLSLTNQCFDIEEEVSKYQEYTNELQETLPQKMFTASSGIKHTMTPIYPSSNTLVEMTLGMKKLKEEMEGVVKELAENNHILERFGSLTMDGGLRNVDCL

Sequences of proteins named here, by UniProt entry; tags and fusion partners are left off. Residues count along the entry.
UniProt P14598: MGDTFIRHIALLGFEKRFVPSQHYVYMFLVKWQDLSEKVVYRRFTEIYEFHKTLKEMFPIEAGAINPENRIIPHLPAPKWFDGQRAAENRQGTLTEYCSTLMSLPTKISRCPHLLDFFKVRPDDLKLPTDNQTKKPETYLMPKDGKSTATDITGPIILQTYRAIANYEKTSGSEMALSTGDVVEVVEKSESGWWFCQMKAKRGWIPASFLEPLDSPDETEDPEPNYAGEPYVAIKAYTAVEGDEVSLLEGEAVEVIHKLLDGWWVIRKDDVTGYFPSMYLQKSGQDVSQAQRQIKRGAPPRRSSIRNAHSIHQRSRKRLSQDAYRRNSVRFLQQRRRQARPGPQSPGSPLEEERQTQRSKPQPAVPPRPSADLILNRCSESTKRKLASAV
UniProt P9WIN9, residues 24-228: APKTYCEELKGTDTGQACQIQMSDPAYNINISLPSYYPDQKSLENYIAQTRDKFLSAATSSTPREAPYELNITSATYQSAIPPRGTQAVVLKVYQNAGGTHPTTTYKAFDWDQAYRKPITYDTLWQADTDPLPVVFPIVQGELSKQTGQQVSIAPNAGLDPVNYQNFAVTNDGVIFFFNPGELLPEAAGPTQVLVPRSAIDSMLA
UniProt P19878: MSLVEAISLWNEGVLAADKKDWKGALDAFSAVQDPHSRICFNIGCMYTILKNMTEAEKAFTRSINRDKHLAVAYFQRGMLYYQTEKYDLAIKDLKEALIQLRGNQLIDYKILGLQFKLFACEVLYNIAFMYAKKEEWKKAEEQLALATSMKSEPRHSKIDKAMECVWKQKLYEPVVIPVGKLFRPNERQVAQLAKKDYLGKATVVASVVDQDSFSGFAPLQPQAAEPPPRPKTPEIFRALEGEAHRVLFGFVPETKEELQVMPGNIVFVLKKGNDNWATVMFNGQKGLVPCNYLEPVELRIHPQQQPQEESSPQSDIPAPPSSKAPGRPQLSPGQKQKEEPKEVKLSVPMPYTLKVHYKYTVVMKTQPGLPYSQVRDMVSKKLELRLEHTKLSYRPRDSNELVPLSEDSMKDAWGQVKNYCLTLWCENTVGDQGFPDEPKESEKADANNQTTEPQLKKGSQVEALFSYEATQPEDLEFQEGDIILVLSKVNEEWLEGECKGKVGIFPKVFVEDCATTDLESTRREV

GST-HK2 = biological target: T2, GST-HK2 (UniProt P52789); assay: pull-down
T2 sequence: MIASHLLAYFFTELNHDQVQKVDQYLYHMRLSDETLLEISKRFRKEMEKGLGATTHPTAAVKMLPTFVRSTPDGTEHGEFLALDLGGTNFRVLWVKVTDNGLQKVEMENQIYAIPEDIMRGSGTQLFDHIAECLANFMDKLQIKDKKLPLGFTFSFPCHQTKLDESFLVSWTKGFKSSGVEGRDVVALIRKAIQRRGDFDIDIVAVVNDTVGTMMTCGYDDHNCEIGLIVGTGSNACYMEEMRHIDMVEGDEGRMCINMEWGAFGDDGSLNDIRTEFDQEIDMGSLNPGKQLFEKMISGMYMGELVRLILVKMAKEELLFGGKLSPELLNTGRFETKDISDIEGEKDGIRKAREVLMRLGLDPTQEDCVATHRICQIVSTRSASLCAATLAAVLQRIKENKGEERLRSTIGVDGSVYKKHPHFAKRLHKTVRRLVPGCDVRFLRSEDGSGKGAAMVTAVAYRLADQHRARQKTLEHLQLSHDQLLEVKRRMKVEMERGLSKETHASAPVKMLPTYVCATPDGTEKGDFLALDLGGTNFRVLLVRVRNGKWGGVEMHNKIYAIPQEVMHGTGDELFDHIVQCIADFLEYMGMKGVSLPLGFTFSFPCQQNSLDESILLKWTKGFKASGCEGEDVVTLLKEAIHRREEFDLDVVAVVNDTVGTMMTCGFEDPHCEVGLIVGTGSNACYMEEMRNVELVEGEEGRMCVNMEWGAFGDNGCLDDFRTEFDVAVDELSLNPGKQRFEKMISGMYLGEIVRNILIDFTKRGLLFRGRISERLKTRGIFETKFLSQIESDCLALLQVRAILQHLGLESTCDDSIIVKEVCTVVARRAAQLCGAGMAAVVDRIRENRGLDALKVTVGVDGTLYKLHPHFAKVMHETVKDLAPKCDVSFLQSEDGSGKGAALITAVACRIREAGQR

[1] = biological target: Neutrophil cytosol factor 1 (p47phox), endogenous in THP-1 (human (endogenous in THP-1)) (UniProt P14598); assay: co-IP
V5-p47phox [2] = biological target: V5-p47phox (UniProt P14598); assay: co-IP
Flag-TBK1 = biological target: T3, Flag-TBK1 (UniProt Q9UHD2); assay: co-IP
T3 sequence: T1 sequence

V5-p47phox [3] = biological target: V5-p47phox (UniProt P14598); assay: co-IP; remark: listed apart in the source
[4] = biological target: Neutrophil cytosol factor 1 (p47phox), endogenous in THP-1 (human (endogenous in THP-1)) (UniProt P14598); assay: co-IP; remark: listed apart in the source

**Q.** What does the source list for Myc-MPT64 (from UniProt P9WIN9 24-228)?
**A.** binding (GST-TBK1): binds; binding (GST-HK2): binds

**Q.** “p67phox, endogenous in THP-1 (from UniProt P19878 1-526)” was tested. Which binding [1] did it give?
**A.** Its binding is “binds”.

**Q.** For “Flag-p67phox (from UniProt P19878 1-526)”, which binding (V5-p47phox [2]) is on record?
**A.** Its binding is “binds”.

B1: V5-IRF3 (protein, UniProt Q14653 1-427)
chain: MGTPKPRILPWLVSQLDLGQLEGVAWVNKSRTRFRIPWKHGLRQDAQQEDFGIFQAWAEATGAYVPGRDKPDLPTWKRNFRSALNRKEGLRLAEDRSKDPHDPHKIYEFVNSGVGDFSQPDTSPDTNGGGSTSDTQEDILDELLGNMVLAPLPDPGPPSLAVAPEPCPQPLRSPSLDNPTPFPNLGPSENPLKRLLVPGEEWEFEVTAFYRGRQVFQQTISCPEGLRLVGSEVGDRTLPGWPVTLPDPGMSLTDRGVMSYVRHVLSCLGGGLALWRAGQWLWAQRLGHCHTYWAVSEELLPNSGHGPDGEVPKDKEGGVFDLGPFIVDLITFTEGSGRSPRYALWFCVGESWPQDQPWTKRLVMVKVVPTCLRALVEMARVGGASSLENTVDLHISNSHPLSLTSDQYKAYLQDLVEGMDFQGPGES
**Q.** Which binding (Flag-TBK1) does the source give for B1 here?
**A.** The binding was “binds”.

B2: Flag-p22phox (protein, UniProt P13498 1-195)
chain: MGQIEWAMWANEQALASGLILITGGIVATAGRFTQWYFGAYSIVAGVFVCLLEYPRGKRKKGSTMERWGQKYMTAVVKLFGPFTRNYYVRAVLHLLLSVPAGFLLATILGTACLAIASGIYLLAAVRGEQWTPIEPKPRERPQIGGTIKQPPSNPPPRPPAEARKKPSEEEAAVAAGGPPGGPQVNPIPVTDEVV
**Q.** B2 was tested. Which binding (V5-p47phox [3]) did it give?
**A.** Its binding is “binds”.

B3: p22phox, endogenous in THP-1 (protein, UniProt P13498 1-195)
chain: B2 chain
**Q.** With B3 as the molecule, how does the binding [4] read?
**A.** The binding was “binds”.

— paper PMC8152475 (Biomedicines, 2021)
